# Test results: PMC3823801, “Structure Reveals Regulatory Mechanisms of a MaoC-Like Hydratase from Phytophthora capsici Involved in Biosynthesis of Polyhydroxyalkanoates (PHAs)” (PLoS ONE, 2013)
# Results are given in words; binding and its absence hold for the method and conditions named.
# Legend:
# Test in all cases: SEC; analytical gel filtration, Superdex 75 10/300 GL, 10 mM Tris-HCl pH 8.5, 100 mM NaCl, 1 mM DTT; calibrated with BSA (66 kDa) and rabbit IgG (150 kDa); both purified
# [1] = molecular target: MaoC M27E (Phytophthora capsici (SD33)) (UniProt E3T2G3)
# [2] = molecular target: MaoC R23D (Phytophthora capsici (SD33)) (UniProt E3T2G3)
# [3] = molecular target: MaoC L191D (Phytophthora capsici (SD33)) (UniProt E3T2G3)
substance,measurement,setting,value
MaoC M27E (from UniProt E3T2G3 1-298) (enzyme),binding,[1],no binding
MaoC R23D (from UniProt E3T2G3 1-298) (enzyme),binding,[2],no binding
MaoC L191D (from UniProt E3T2G3 1-298) (enzyme),binding,[3],no binding
